# Experimental data as given in PubChem BioAssay AID504444 (National Center for Advancing Translational Sciences (NCATS), 2011).
# Out of some 360,000 compounds screened, about 7,500 (2.1%) were called active. Inconclusive results, whose numbers are uncertain, are shown with a selection of clear calls. Calls follow the shape of the dose curve; as a rule, active = well fitted inhibition curve with a large enough effect; inconclusive = small, poorly fitted or top-dose-only effect, or effect the other way; inactive = flat fitted curve, though single readings scatter. Where the call is inconclusive, the potency comes from a doubtful curve fit.
# Test: Nrf2 qHTS screen for inhibitors; also: nearly all actives have a fitted effect of over 60% in size
# Settings: A549 ARE-Fluc reporter, luciferase luminescence, 18-24 h; series mostly up to 46 µM
# Procedure, shortened: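 Nrf2 activity is the BugLite luminescence, read 15 min after reagent at room temperature, following CellTiter-Fluor cytotoxicity readout (30 min, 37C). Compound titrations were applied for 18-24 h to 5000 A549 ARE_Fluc cells/well in 5% FBS OPTI-MEM.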
# Potency is read from the fitted curve at half-maximal effect.
row,Compound,Potency
1,O=C(CN1CCCCC1)Nc1ccc(Br)cc1[N+](=O)[O-],"inconclusive: 4.61 µM [activator, partial curve, poor fit]"
2,CCOc1ccc(Cn2nnc3c(=O)[nH]c(C4CCN(C(=O)c5ccccc5)CC4)nc32)cc1,inactive
3,Cc1nc2ccc(C(=O)Nc3ccc(N(C)C)cc3)cc2s1,"inconclusive: 2.31 µM [falling, full curve]"
4,CCCCCC(=O)Nc1ccc(C(=O)COC(=O)Cn2cnc3c2c(=O)n(C)c(=O)n3C)cc1,"inconclusive: 11.6 µM [activator, partial curve, poor fit]"
5,Cc1c(Cl)ccc2c(C(=O)NCCN3CCCCC3)cc(-c3ccccn3)nc12,"inconclusive: 4.11 µM [falling, partial curve, poor fit]"
6,O=C1C2C3C=CC(C3)C2C(=O)N1/N=C/c1ccc(-c2ccccc2[N+](=O)[O-])o1 (centres undefined),"inconclusive: 23.1 µM [activator, single point]"
7,O=C(Cc1ccccc1)Nc1nc2ccccc2[nH]1,inactive
8,CS(=O)(=O)N(Cc1ccccc1)c1ccccc1C(=O)Nc1ccccc1C(=O)NCc1ccco1,"inconclusive: 5.8 µM [activator, partial curve, poor fit]"
9,COc1cc2c(cc1NC(=O)CSc1nnc(COc3ccc(Cl)cc3)n1C)oc1ccccc12,"inconclusive: 29.1 µM [falling, single point]"
10,O=S(=O)(/N=C(/Nc1ccccc1)c1ccccc1)c1cccs1,"inconclusive: 4.11 µM [falling, partial curve]"
11,Cc1ccc(-c2nc3ccccc3nc2-c2ccccc2)cc1,"inconclusive: 29.1 µM [falling, single point]"
12,CCOC(=O)c1ccc(NC(=O)c2nc[nH]c2C(=O)NC)cc1,"inconclusive: 0.58 µM [falling, full curve, poor fit]"
13,Cc1c(NC(=O)c2ccc(OC(C)C)cc2)cccc1-c1nc2ncccc2o1,"inconclusive: 2.91 µM [falling, full curve, poor fit]"
14,O=c1c(Br)c(N2CCCC2)cnn1-c1ccccc1,"inconclusive: 3.66 µM [activator, full curve, poor fit]"
15,COc1ccc2c(c1)c(=O)oc1c(C)c(OCc3ccc(C(=O)O)cc3)ccc12,"inconclusive: 4.11 µM [falling, partial curve, poor fit]"
16,FC(F)(F)c1cccc(NC(=S)Nc2ccc(Cl)c(Cl)c2)c1,"inconclusive: 29.1 µM [falling, single point]"
17,Cc1ccc2nc3c(cc(S(=O)(=O)c4ccccc4)c(=N)n3C3CCCC3)c(=O)n2c1,"inconclusive: 2.59 µM [activator, partial curve, poor fit]"
18,CCNS(=O)(=O)c1ccc(NC(=O)Nc2ccccc2OC)cc1,"inconclusive: 1.64 µM [activator, full curve, poor fit]"
19,Cc1nc2nc(SCC(N)=O)[nH]c2cc1Br,"inconclusive: 20.6 µM [activator, partial curve, poor fit]"
20,O=C1CCC2c3ccc4ccccc4c3CCN12 (centres undefined),"inconclusive: 29.1 µM [falling, single point]"

row,Compound,Potency
1,Cc1ccc(CNC(=O)C2CCCN(S(=O)(=O)c3ccc4c(c3)oc(=O)n4C)C2)cc1 (centres undefined),inactive
2,O=c1c2c(nc3nc(SCc4ccccc4)[nH]n13)CCC2,"inconclusive: 1.16 µM [falling, full curve, poor fit]"
3,COc1ccc(C(=O)N2CCN(Cc3ccc4c(c3)OCO4)CC2)cc1[N+](=O)[O-],"inconclusive: 2.06 µM [activator, partial curve, poor fit]"
4,Cc1cccc(OCC(=O)Nc2ccc(N3CCN(C(=O)c4ccccc4)CC3)cc2)c1,"inconclusive: 16.4 µM [falling, single point]"
5,CCN1C(=NCCOC)N[C@@H](CCc2ccccc2)[C@H](C(=O)OC)[C@H]1C,inactive
6,CCN(C(=O)COC(=O)CN(C)S(=O)(=O)c1ccc(NC(C)=O)cc1)C1CCS(=O)(=O)C1 (centres undefined),inactive
7,O=C(CSc1ccsc1[N+](=O)[O-])N1CCN(c2ccccn2)CC1,"inconclusive: 20.6 µM [activator, partial curve]"
8,O=C(NNC(=O)c1cccc(Cl)c1)NNC(=O)c1cccc(Cl)c1,"inconclusive: 11.6 µM [activator, partial curve]"
9,COc1ccc(-c2noc(CN3CCN(c4ccccc4)CC3)n2)cc1,"inconclusive: 18.4 µM [falling, partial curve, poor fit]"
10,Cc1ccsc1C(=O)NN=C1CCCCCC1,"inconclusive: 18.4 µM [activator, single point]"
11,CC(C)(C)S(=O)(=O)N1C[C@H]2CC/C=C\C/C(c3ccccc3)=C\2[C@@H]1CCO,"inconclusive: 2.91 µM [activator, full curve]"
12,Cc1ccc(C)c(NC(=O)CSc2nnc3n2CCCCC3)c1,"inconclusive: 3.26 µM [activator, full curve]"
13,CCC(=O)N1c2ccc(S(=O)(=O)N3CCN(c4ccccc4)CC3)cc2CC1C (centres undefined),"inconclusive: 20.6 µM [falling, single point]"
14,COc1ccc(C(=O)Nn2c(SCC(=O)c3ccc(Cl)cc3)nc3ccccc3c2=O)cc1,"inconclusive: 29.1 µM [falling, single point]"
15,COc1cc2[nH]c3c(Cl)ncnc3c2cc1OC,"inconclusive: 11.6 µM [falling, partial curve, poor fit]"
16,O=C1C=C(NCc2ccco2)CC(c2ccc(Cl)cc2)C1 (centres undefined),"inconclusive: 6.51 µM [falling, partial curve, poor fit]"
17,COc1ccc(CNc2ncnc3onc(C)c23)cc1,active: 4.11 µM
18,O=C(CCCOc1ccccc1)NNC(=O)c1ccc(Cl)cc1,"inconclusive: 16.4 µM [activator, partial curve]"
19,COc1ccc(NS(=O)(=O)c2cc(C(=O)N3CCN(C/C=C/c4ccccc4)CC3)ccc2C)cc1,"inconclusive: 29.1 µM [falling, single point]"

# Compounds from the list above that contain a furan ring, fused or not, in the order listed:
row,Compound,Potency
6,O=C1C2C3C=CC(C3)C2C(=O)N1/N=C/c1ccc(-c2ccccc2[N+](=O)[O-])o1 (centres undefined),"inconclusive: 23.1 µM [activator, single point]"
8,CS(=O)(=O)N(Cc1ccccc1)c1ccccc1C(=O)Nc1ccccc1C(=O)NCc1ccco1,"inconclusive: 5.8 µM [activator, partial curve, poor fit]"
9,COc1cc2c(cc1NC(=O)CSc1nnc(COc3ccc(Cl)cc3)n1C)oc1ccccc12,"inconclusive: 29.1 µM [falling, single point]"
16,O=C1C=C(NCc2ccco2)CC(c2ccc(Cl)cc2)C1 (centres undefined),"inconclusive: 6.51 µM [falling, partial curve, poor fit]"
